Data published in patent US8710095B2, “Drugs for prophylaxis or mitigation of taxane-induced neurotoxicity” (Bionumerik Pharmaceuticals, Inc., priority 2002, dated 2014).

System: patients with advanced solid tumors
Experiment: Phase I study in the United States: 2,2′-dithiobis ethane sulfonate with paclitaxel and cisplatin, incidence of neurotoxicity
Type: in vivo, human
Details: 36 patients
Experimental: In the Phase I study in the United States, human patients in Stage I received the following treatment regimen every 3 weeks: a single dose of paclitaxel (175 mg/m^2) administered intravenously over 3 hours, pre-cisplatin saline hydration (1000 mL 0.9% NaCl) for 2 hours, followed immediately by a single dose of 2,2′-dithiobis ethane sulfonate (4.1, 8.2, 12.3, 18.4, 27.6 and 41.0 g/m^2, depending on cohort assignment) administered intravenously over 15 or 30 minutes, a single dose of cisplatin (75 mg/m^2) administered intravenously over 1 hour and subsequently post-cisplatin saline hydration (500 cc 0.9% NaCl) for 1 hour.
A total of 36 patients (22 patients in Stage I and 14 patients in Stage II) with advanced solid tumors have been enrolled and treated in this study at two clinical sites in the United States. A total of 138 treatment courses of BNP7787 with chemotherapy were given to 36 patients giving an average number of 3.8 treatment cycles per patient. A total of 13 patients (36.1%) completed at least five treatment cycles while 5 patients (13.9%) completed at least seven treatment cycles.
The number and percentage of patients who reported neurotoxicity in the Phase I studies compared with historical control data are summarized on the next page. Severity grades were measured according to NCI-CTC standards.

O=S(=O)([O-])CCSSCCS(=O)(=O)[O-].[Na+].[Na+] [2,2′-dithiobis ethane sulfonate]
patients who completed at least five treatment cycles: 36.1%
patients who completed at least seven treatment cycles: 13.9%
